Where “and” joins values, the source holds several entries; their conditions need not be identical. Equal entries are not always repeated.
Test: Cleaning tests at 70° C. on stainless steel plates soiled with bioferment (Example 3)
Conditions: 2%, 45 min contact time

## O=C([O-])[O-].[Na+].[Na+] [Sodium Carbonate]
Average of two plates
  Soil Removal Average: 92.29 g
Single plate, listed as Na2CO3
  Soil Removal: 94.0 g and 90.6 g
